This passage reports Kd results from article PMC3231483.

For at least one entry, the source does not settle the construct or the ends of the probe.

This data set deals with thrombin (human). The experiment in a line: binding assay. Conditions: 5' NH2; Aptamer immobilized from 1 uM in PBS; assay buffer; commercial protein; folded or branched DNA.

What is called Kd is a measure of binding affinity in units of concentration.

With “AGTCCGTGGTAGGGCAGGTTGGGGTGACT [29-mer thrombin aptamer (TBA)]”, the Kd is 0.5 nM.
